Source: paper PMC11972371
These are yes or no findings as the source states them, for the method shown. Binding seen in cells or lysates may run through a third protein.

Target: T1, RPN1 (mouse (endogenous in mouse brain)) (UniProt Q91YQ5)
T1 sequence: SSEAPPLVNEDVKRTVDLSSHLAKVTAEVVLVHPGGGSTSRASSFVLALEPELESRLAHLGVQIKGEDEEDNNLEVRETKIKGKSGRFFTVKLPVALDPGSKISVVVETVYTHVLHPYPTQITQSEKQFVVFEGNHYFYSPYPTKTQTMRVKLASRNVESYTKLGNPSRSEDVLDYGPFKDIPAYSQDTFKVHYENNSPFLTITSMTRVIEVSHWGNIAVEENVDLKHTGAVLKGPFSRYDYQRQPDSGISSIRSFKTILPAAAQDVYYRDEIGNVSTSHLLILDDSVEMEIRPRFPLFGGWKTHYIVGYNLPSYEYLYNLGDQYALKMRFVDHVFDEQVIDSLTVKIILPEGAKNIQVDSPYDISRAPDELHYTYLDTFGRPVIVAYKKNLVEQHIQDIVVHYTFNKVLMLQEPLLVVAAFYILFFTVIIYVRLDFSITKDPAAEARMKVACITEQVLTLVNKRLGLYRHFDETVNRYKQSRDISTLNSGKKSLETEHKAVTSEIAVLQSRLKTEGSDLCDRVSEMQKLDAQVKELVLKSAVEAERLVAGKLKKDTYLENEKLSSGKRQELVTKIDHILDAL
Assay: co-IP; endogenous proteins from normal brain tissue of WT mice; immunoprecipitation assay kit (Proteintech), primary antibody overnight at 4 °C, agarose beads, detection by western blotting

B1: CDK5RAP3 (protein, UniProt Q99LM2 1-503)
chain: MQDHQHVPIDIQTSKLLDWLVDRRHCNLKWQSLVLTIREKINTAIQDMPESQEIAQLLSGSYIHYFHCLRIVDLLKGTEASTKNIFGRYSSQRMKDWQEIVSLYEKDNTYLVELCSLLVRNVSYEIPSLKKQIAKCQQLQQEYSRKEEEGQAGAAEMREQFYHSCKQYGITGDNVRRELLALVKDLPSQLAEIGAGAQSLGEAIDLYQACVEFVCDSPTEQVLPMLRYVQKKGNSTVYEWRTGTEPSVVERPQLEEPPEQVQEDEIDWGDFGVEAVSDSGIVAETPGIDWGISLESEAKDAGADKIDWGDDAAAASEITVLETGTEAPEGVARGSDALTLLEYPETRNQFIDELMELEIFLSQRAVEMSEEADILSVSQFQLAPAILQGQTKEKMLSLVSTLQQLIGRLTSLRMQHLFMILASPRYVDRVTEFLQQKLKQSQLLALKKELMVEKQQEALQEQAALEPKLDLLLEKTRELQKLIEADISKRYSGRPVNLMGTSL
binding: no binding
